Reference: patent US6995178B2, “Insecticidal anthranilamides” (E. I. du Pont de Nemours and Company, priority 2000, dated 2006)
Some results were stated once for a whole list of compounds, not compound by compound. Some ranges recur; such a range may be that of the whole group of compounds.

Test system: Diamondback Moth (DBM)—Plutella Xylostella
Assay: Diamondback Moth (DBM) plant feeding damage test on radish plants
Type: in vivo
Conditions: sprayed at 250 ppm, 1 mL per test unit, 12-14 day old radish plant pre-infested with 10-15 neonate larvae, held 6 days at 25° C. and 70% relative humidity, replicated three times

Compound: Cc1nc(C(F)(F)F)ccc1C(=O)Nc1c(C(=O)NC(C)(C)C)cccc1C(F)(F)F [Compound B20]
- Plant feeding damage visually assessed on a scale of 0-10 (excellent levels of plant protection: ratings of 0-1, 10% or less feeding damage): 0-1

Compound: COC(=O)c1cn(-c2cc(C(F)(F)F)ccc2C(=O)Nc2c(C)cccc2C(=O)NC(C)C)cn1 [Compound 239]
- Plant feeding damage visually assessed on a scale of 0-10 (excellent levels of plant protection: ratings of 0-1, 10% or less feeding damage): 0-1

Compound: Cc1cn(-c2cc(C(F)(F)F)ccc2C(=O)Nc2c(C)cccc2C(=O)NC(C)C)c(C)n1 [Compound 230]
- Plant feeding damage visually assessed on a scale of 0-10 (excellent levels of plant protection: ratings of 0-1, 10% or less feeding damage): 0-1

Compound: COCCNC(=O)c1cccc(C)c1NC(=O)c1ccc(OC(F)(F)F)cc1 [Compound 28]
- Plant feeding damage visually assessed on a scale of 0-10 (excellent levels of plant protection: ratings of 0-1, 10% or less feeding damage): 0-1

Compound: Cc1cccc(C(=O)NC(C)C)c1NC(=O)c1cc(F)ccc1C(=O)N(C)C [Compound 211]
- Plant feeding damage visually assessed on a scale of 0-10 (excellent levels of plant protection: ratings of 0-1, 10% or less feeding damage): 0-1

Compound: Cc1cc(C(=O)Nc2c(F)cccc2C(=O)NC(C)C)n(-c2ccccc2)n1 [Compound D13]
- Plant feeding damage visually assessed on a scale of 0-10 (excellent levels of plant protection: ratings of 0-1, 10% or less feeding damage): 0-1

Compound: Cc1cccc(C(=O)NC(C)C)c1NC(=O)c1cc(C(F)(F)F)nn1-c1c(Cl)cncc1Cl [Compound D113]
- Plant feeding damage visually assessed on a scale of 0-10 (excellent levels of plant protection: ratings of 0-1, 10% or less feeding damage): 0-1

Compound: Cc1cccc(C(=O)N(C)C(C)C)c1NC(=O)c1ccc(C(F)(F)F)nc1C [Compound B43]
- Plant feeding damage visually assessed on a scale of 0-10 (excellent levels of plant protection: ratings of 0-1, 10% or less feeding damage): 0-1

Compound: CC[C@@H](C)NC(=O)c1cccc(C)c1NC(=O)c1ccc(OC(F)(F)F)cc1 [Compound 90]
- Plant feeding damage visually assessed on a scale of 0-10 (excellent levels of plant protection: ratings of 0-1, 10% or less feeding damage): 0-1

Compound: CSCCNC(=O)c1cccc(C)c1NC(=O)c1ccc(C(F)(F)F)cc1 [Compound 191]
- Plant feeding damage visually assessed on a scale of 0-10 (excellent levels of plant protection: ratings of 0-1, 10% or less feeding damage): 0-1

Compound: Cc1cc(C(F)(F)F)ccc1C(=O)Nc1c(Cl)cccc1C(=O)NC1CC1 [Compound 207]
- Plant feeding damage visually assessed on a scale of 0-10 (excellent levels of plant protection: ratings of 0-1, 10% or less feeding damage): 0-1

Compound: CCCC(C)NC(=O)c1cccc(C)c1NC(=O)c1ccc(C(F)(F)F)nc1C (stereo not shown) [Compound B13]
- Plant feeding damage visually assessed on a scale of 0-10 (excellent levels of plant protection: ratings of 0-1, 10% or less feeding damage): 0-1

Compound: CC(C)(C)NC(=O)c1cccc(Cl)c1NC(=O)c1cc(C(F)(F)F)nn1-c1ccccc1 [Compound D24]
- Plant feeding damage visually assessed on a scale of 0-10 (excellent levels of plant protection: ratings of 0-1, 10% or less feeding damage): 0-1

Compound: Cc1cccc(C(=O)NC(C)C)c1NC(=O)c1ccc(C(C)C)nc1C [Compound B60]
- Plant feeding damage visually assessed on a scale of 0-10 (excellent levels of plant protection: ratings of 0-1, 10% or less feeding damage): 0-1

Compound: Cc1cccc(C(=S)NC(C)C)c1NC(=O)c1ccc(OC(F)(F)F)cc1 [Compound 277]
- Plant feeding damage visually assessed on a scale of 0-10 (excellent levels of plant protection: ratings of 0-1, 10% or less feeding damage): 0-1

Compound: CC(C)NC(=O)c1cccc(Cl)c1NC(=O)c1cc(C(F)(F)F)nn1-c1cccc(F)c1 [Compound D55]
- Plant feeding damage visually assessed on a scale of 0-10 (excellent levels of plant protection: ratings of 0-1, 10% or less feeding damage): 0-1

Compound: Cc1cccc(C(=O)NC(C)C)c1NC(=O)c1ccc(C(F)(F)F)nc1SCC(C)C [Compound B62]
- Plant feeding damage visually assessed on a scale of 0-10 (excellent levels of plant protection: ratings of 0-1, 10% or less feeding damage): 0-1

Compound: CC(C)NC(=O)c1ccccc1NC(=O)c1ccc(C(F)(F)F)cc1 [Compound 72]
- Plant feeding damage visually assessed on a scale of 0-10 (excellent levels of plant protection: ratings of 0-1, 10% or less feeding damage): 0-1

Compound: CCCC(C)NC(=O)c1cccc(C)c1NC(=O)c1ccc(OC(F)(F)F)cc1 (stereo not shown) [Compound 29]
- Plant feeding damage visually assessed on a scale of 0-10 (excellent levels of plant protection: ratings of 0-1, 10% or less feeding damage): 0-1

Compound: CC(C)NC(=O)c1cccc(Cl)c1NC(=O)c1cc(C(F)(F)F)nn1-c1ccccc1Cl [Compound D34]
- Plant feeding damage visually assessed on a scale of 0-10 (excellent levels of plant protection: ratings of 0-1, 10% or less feeding damage): 0-1

Compound: COCC(C)NC(=O)c1cccc(C)c1NC(=O)c1ccc(OC(F)(F)F)cc1 (stereo not shown) [Compound 27]
- Plant feeding damage visually assessed on a scale of 0-10 (excellent levels of plant protection: ratings of 0-1, 10% or less feeding damage): 0-1

Compound: COCc1nc(C(F)(F)F)ccc1C(=O)Nc1c(C)cccc1C(=O)NC(C)C [Compound B37]
- Plant feeding damage visually assessed on a scale of 0-10 (excellent levels of plant protection: ratings of 0-1, 10% or less feeding damage): 0-1
